# Measured values published in paper PMC3121795.
# No constants are given. Whether binding was seen depends on the method and setting. Some results given as binding are weak or reduced against the parent protein; the word gives no strength.
# Molecular target: IPNV VP1 lacking the C-terminal 55 residues (ΔC55) (infectious pancreatic necrosis virus (IPNV) strain Jasper) (UniProt P22173)
# Assay: crystal structure; ΔC55 VP1 crystals (apo, Mg-soaked, and apo in a large unit cell); 5.8-6.8 mg/mL protein, PEG3350, bis-Tris propane pH 7.5, sodium citrate, 20.5°C; both purified
substance,measurement,value
IPNV VP1 lacking the C-terminal 55 residues (ΔC55) (from UniProt P22173 1-790) (domain or fragment),binding,binds weakly
